In paper PMC12155415 one finds binding data, which are given here for 5 substances.

By UniProt entry, the sequences of proteins in these tests, tags left out.
UniProt Q8TAQ2: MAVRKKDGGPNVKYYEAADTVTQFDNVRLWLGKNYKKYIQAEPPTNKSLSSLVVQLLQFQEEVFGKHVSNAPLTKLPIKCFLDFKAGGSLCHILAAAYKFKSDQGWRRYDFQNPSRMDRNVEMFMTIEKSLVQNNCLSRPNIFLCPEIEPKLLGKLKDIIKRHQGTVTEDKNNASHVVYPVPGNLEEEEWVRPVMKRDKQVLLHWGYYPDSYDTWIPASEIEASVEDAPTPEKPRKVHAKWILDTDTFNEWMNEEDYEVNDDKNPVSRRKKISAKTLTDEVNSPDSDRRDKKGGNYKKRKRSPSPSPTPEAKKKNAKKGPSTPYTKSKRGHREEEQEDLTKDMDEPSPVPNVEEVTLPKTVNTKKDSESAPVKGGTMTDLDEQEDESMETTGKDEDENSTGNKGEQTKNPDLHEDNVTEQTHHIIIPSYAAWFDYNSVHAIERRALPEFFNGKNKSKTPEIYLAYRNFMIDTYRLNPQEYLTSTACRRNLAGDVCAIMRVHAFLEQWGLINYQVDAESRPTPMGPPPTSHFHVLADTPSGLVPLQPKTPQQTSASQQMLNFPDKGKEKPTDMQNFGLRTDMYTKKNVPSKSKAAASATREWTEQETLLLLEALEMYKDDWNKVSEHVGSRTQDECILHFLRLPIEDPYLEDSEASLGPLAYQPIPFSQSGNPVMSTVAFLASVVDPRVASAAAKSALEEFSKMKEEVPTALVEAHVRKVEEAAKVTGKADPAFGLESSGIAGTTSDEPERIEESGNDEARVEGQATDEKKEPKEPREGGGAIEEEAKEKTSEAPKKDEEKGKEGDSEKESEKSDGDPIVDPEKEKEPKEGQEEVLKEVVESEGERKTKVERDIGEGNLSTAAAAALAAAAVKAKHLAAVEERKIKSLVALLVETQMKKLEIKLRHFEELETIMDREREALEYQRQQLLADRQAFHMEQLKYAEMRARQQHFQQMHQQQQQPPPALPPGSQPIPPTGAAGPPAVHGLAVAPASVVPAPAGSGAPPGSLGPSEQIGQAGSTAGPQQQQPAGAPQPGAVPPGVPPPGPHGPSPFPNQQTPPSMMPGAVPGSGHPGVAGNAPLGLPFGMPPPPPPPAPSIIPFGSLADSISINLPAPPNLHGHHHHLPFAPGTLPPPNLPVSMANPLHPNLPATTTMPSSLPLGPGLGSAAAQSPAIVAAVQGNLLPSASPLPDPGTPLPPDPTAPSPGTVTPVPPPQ
UniProt Q92598: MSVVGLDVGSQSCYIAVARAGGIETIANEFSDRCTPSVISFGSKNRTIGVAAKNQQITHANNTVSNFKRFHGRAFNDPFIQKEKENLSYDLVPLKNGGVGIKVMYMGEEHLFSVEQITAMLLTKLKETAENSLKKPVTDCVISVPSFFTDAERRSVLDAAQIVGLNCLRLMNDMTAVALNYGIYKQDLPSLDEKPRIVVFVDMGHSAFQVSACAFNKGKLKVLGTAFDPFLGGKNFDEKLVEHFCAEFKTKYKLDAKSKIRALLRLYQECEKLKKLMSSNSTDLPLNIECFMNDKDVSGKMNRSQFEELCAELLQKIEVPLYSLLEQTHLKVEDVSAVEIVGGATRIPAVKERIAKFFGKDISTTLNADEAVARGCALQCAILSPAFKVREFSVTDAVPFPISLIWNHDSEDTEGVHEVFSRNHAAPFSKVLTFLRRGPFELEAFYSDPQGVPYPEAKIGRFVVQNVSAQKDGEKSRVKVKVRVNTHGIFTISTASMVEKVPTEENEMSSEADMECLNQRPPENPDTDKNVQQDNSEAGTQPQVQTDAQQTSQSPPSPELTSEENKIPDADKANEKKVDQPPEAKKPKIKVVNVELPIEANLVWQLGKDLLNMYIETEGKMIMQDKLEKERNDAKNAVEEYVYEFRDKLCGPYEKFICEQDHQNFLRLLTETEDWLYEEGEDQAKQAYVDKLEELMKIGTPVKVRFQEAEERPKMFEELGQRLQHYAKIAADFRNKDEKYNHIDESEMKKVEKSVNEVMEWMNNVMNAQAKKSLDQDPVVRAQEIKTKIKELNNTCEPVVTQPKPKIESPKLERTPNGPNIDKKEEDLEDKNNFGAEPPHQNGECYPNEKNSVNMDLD
UniProt P51532: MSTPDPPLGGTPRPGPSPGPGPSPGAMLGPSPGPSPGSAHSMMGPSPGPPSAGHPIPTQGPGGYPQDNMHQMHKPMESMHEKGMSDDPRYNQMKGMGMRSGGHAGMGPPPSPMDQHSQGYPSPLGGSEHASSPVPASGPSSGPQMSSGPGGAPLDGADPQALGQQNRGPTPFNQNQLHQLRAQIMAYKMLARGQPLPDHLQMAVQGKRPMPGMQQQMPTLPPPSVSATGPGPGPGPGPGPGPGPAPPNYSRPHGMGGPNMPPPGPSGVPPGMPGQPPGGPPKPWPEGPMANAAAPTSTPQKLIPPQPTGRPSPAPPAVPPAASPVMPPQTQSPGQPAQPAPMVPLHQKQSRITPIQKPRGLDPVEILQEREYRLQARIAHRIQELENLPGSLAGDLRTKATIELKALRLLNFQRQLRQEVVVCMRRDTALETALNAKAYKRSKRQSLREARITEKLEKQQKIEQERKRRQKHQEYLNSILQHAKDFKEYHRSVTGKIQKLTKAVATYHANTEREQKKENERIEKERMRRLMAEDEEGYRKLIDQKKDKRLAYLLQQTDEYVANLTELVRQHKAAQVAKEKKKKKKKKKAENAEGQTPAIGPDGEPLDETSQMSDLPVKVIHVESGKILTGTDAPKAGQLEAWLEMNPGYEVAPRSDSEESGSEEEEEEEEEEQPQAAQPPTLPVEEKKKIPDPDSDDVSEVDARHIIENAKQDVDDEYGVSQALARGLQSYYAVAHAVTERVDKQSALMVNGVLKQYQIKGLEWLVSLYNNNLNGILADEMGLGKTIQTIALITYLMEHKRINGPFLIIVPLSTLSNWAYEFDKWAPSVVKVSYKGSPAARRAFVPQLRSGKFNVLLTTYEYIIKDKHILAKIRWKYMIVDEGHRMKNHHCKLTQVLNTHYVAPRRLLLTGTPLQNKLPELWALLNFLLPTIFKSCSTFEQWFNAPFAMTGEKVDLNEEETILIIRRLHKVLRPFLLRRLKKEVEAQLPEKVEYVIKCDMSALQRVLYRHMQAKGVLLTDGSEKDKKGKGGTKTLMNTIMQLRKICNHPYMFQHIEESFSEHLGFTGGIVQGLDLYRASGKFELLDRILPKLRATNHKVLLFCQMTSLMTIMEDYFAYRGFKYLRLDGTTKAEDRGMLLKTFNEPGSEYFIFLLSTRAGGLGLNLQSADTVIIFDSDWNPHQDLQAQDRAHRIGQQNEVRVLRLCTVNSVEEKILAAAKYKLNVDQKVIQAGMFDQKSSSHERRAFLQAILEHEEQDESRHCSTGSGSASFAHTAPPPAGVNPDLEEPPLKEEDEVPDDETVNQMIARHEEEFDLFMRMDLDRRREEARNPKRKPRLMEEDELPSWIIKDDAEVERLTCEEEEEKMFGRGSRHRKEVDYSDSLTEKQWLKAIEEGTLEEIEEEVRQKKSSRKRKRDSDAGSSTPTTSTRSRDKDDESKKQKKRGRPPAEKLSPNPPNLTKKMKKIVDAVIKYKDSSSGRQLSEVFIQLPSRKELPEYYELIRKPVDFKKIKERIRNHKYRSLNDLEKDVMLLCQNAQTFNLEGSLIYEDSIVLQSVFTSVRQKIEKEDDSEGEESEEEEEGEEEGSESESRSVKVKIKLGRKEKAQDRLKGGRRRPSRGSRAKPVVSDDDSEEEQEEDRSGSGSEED

No constants are given. Whether binding was seen depends on the method and setting. For some assays here: In cells and extracts the contact can be indirect. Some results given as binding are weak or reduced against the parent protein; the word gives no strength.

The target of experiment [1] is SMARCC2-Flag (UniProt Q8TAQ2). As to the kind of experiment: co-IP; FLAG-tagged protein transiently expressed in HEK293 cells, lysate on anti-FLAG magnetic agarose beads, 2 h at 4 °C, Western blot.
Experiment [2] addresses SMARCC2/BAF170 (endogenous, SW480 cells) (human (endogenous in SW480)) (UniProt Q8TAQ2). The experiment in a line: proximity ligation; DuoLink PLA on fixed SW480 cells, untreated or treated with 50 µM oxaliplatin or 200 µM TMZ for 48 h, with scramble or HSP110 siRNA.
Experiment [3] deals with SMARCC2-Flag (UniProt Q8TAQ2). As to the kind of experiment: pull-down; SMARCC2-Flag from HEK 293T lysate immobilised on anti-FLAG magnetic beads, washed, then incubated with lysate of SW480 cells transfected with scramble, HSP110 or SMARCA4 siRNAs, 2 h at 4 °C; Western blot; only the target purified. For orientation: In western blotting, separated proteins are transferred to a membrane and probed.

The target of a further experiment is HSP110-Flag (UniProt Q92598). The experiment in a line: co-IP; FLAG-tagged protein transiently expressed in HEK293 cells, lysate on anti-FLAG magnetic agarose beads, 2 h at 4 °C, Western blot.
Another experiment addresses SMARCA4-Flag (UniProt P51532). The experiment in a line: pull-down; SMARCC2-Flag or SMARCA4-Flag from HEK 293T lysate immobilised on anti-FLAG magnetic beads, washed, then incubated with recombinant HSP110 for 2 h at 4 °C; Western blot; both purified.
Experiment [4] addresses SMARCC2-Flag (UniProt Q8TAQ2). The description is as above.

As for “HSP110 (endogenous, HEK293 cells) (from UniProt Q92598 1-858)”, the binding entry with SMARCC2-Flag [1] is recorded as “binds”.

For the substance “HSP110 (endogenous, SW480 cells) (from UniProt Q92598 1-858)”, the binding result (in experiment [2]; in the experiment with SMARCC2-Flag [3]) was “binds” throughout.

Turning to “SMARCA4/BRG1 (endogenous, SW480 cells) (from UniProt P51532 1-1647)”, the binding result (in experiment [2]; in the experiment with SMARCC2-Flag [3]) was “binds” each time.

Regarding “SMARCC2 (endogenous, HEK293 cells) (from UniProt Q8TAQ2 1-1214)”, the binding result with HSP110-Flag is reported as “binds”.

“recombinant Human Hsp105/HSP110 protein (from UniProt Q92598 1-858)”: the binding entry with SMARCA4-Flag was “no binding”; in the experiment with SMARCC2-Flag [4] it was “binds”.
